Results as given in paper PMC11403616, “Arcopilins: A New Family of Staphylococcus aureus Biofilm Disruptors from the Soil Fungus Arcopilus navicularis” (Journal of Medicinal Chemistry, 2024).
Values after ≈ are worked out from the molar mass of the structure shown.

Tested on: P. aeruginosa PA 14
Assay: MIC against bacteria (antimicrobial assay)
Assay type: cell-based
Details: Pseudomonas aeruginosa, PA14, – = no activity observed under test conditions
Protocol: The antimicrobial activities of compounds 1–7 (Acp A–G) were assessed against different bacterial and fungal strains in addition to their cytotoxic effects on two mammalian cell lines. The tested microorganisms comprised a diverse array of clinically relevant pathogens, encompassing sensitive indicator strains. Among the Gram-positive bacteria were Bacillus subtilis, Staphylococcus aureus, and Mycolicibacterium smegmatis. Gram-negative bacteria included Acinetobacter baumannii, Chromobacterium violaceum, Escherichia coli, and Pseudomonas aeruginosa. Additionally, filamentous fungi such as Mucor hiemalis and yeasts including Candida albicans, Wickerhamomyces anomalus, Rhodotorula glutinis, and Schizosaccharomyces pombe were included. Generally, all compounds presented similar biological properties, summarized in weak or no activity against fungal pathogens as well as weak to moderate inhibition of Gram-positive bacteria (Table 2).
The antimicrobial and cytotoxic assays were performed according to the methods reported previously.[57]

MIC: 0.21 µg/mL (≈ 0.44 µM)
SMILES: CNC(C)C1CCC(N)C(OC2C(N)CC(N)C(OC3OCC(C)(O)C(NC)C3O)C2O)O1 (stereo not shown) [Gentamicin]
